Reference: patent publication US20140227291A1
No constants are given. Whether binding was seen depends on the method and setting. Some results given as binding are weak or reduced against the parent protein; the word gives no strength.

Biological target: Abeta(20-42) globulomer (human)
Assay: dot blot: antigen dilution series dotted on nitrocellulose, antibody 0.2 ug/ml, anti-mouse-IgG-POD detection

binding: binds
B1: murine monoclonal antibody m4C9 (antibody, V domains shown)
VH: QVQLQQPGAELVKPGASVKLSCKAPGYTFTSYWMHWVKQRPGQGLEWIGRIDPKSGDTKYTEKFKSKATLTVDKPSSTAYMQLSSLTSEDSAVYYCTTMSKLSGTHAWFAYWGQGTLVTVSA
VL: DIKMTQSPSSMYASLGERVTITCKASQDINSYLTWFQQKPGKSPKTLIYRANRLVDGVPSRFSGSGSGQDYSLTISSLEYEDMGIYYCLQYDEFPLTFGAGTKLELK
